Results taken from patent US7867500B2, “Cofactor that modulates steroid receptor activities” (The United States of America as represented by the …, priority 2004, dated 2011).
The name of at least one read-out is uncertain.

Biological target: T1, glucocorticoid receptor (GR) (Rattus norvegicus, UniProt P06536)
T1 sequence (P06536 1-795): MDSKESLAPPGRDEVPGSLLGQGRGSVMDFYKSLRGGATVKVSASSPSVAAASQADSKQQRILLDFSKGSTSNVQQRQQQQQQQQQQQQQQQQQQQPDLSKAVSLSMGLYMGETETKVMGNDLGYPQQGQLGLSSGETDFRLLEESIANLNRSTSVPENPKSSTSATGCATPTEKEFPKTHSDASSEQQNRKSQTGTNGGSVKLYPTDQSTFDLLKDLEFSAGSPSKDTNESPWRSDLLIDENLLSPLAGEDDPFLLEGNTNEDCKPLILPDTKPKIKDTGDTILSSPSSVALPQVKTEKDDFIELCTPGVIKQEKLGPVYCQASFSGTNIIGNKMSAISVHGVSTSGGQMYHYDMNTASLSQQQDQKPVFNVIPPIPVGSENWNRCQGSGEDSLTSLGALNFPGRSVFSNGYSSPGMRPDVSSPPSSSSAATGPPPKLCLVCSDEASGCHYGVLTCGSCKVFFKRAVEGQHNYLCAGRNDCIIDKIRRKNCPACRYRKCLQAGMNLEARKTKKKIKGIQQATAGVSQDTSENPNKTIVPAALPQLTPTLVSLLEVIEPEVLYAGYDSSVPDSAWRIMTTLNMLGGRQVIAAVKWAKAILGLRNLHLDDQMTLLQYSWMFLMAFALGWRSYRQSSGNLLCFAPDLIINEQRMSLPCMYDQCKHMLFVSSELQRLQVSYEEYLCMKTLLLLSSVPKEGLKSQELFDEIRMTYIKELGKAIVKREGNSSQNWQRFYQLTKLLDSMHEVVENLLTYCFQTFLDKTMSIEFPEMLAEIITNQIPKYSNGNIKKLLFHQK
Experiment: GR-mediated induction of GREtkLUC reporter, transient transfection of CV-1 cells
Conditions: in the presence of transfected GR and TIF2

B1: STAMP623C: STAMP fragment amino acids 623 to 1277, CID and RID but no TTL domain (protein)
chain: ENTPKENSMKVREWNNKGGHCCKLETQELEPKFNLMQILQDNGNLSKMQARIAFSAYLQHVQIRLMKDSGGQTFSASWAAKEDEQMELVVRFLKRASNNLQHSLRMVLPSRRLALLERRRILAHQLGDFIIVYNKETEQMAEKKSKKKVEEEEEDGVNMENFQEFIRQASEAELEEVLTFYTQKNKSASVFLGTHSKISKNNNNYSDSGAKGDHPETIMEEVKIKPPKQQQTTEIHSDKLSRFTTSAEKEAKLVYSNSSSGPTATLQKIPNTHLSSVTTSDLSPGPCHHSSLSQIPSAIPSMPHQPTILLNTVSASASPCLHPGAQNIPSPTGLPRCRSGSHTIGPFSSFQSAAHIYSQKLSRPSSAKAGSCYLNKHHSGIAKTQKEGEDASLYSKRYNQSMVTAELQRLAEKQAARQYSPSSHINLLTQQVTNLNLATGIINRSSASAPPTLRPIISPSGPTWSTQSDPQAPENHSSSPGSRSLQTGGFAWEGEVENNVYSQATGVVPQHKYHPTAGSYQLQFALQQLEQQKLQSRQLLDQSRARHQAIFGSQTLPNSNLWTMNNGAGCRISSATASGQKPTTLPQKVVPPPSSCASLVPKPPPNHEQVLRRATSQKASKGSSAEGQLNGLQSSLNPAASVPITSSTDPAHTKI
With B1 the “EC50 for Dex induction” value was “decreased”.
